According to US6709676B2, “Extended release oral dosage composition” (Schering Corporation, priority 1999, dated 2004):

Assays:
cells of human origin = details: in vitro, mainly cells of human origin; mediator, cytokine and chemokine release, superoxide, adhesion molecules, eosinophil migration
[1] = system: seasonal allergic rhinitis patients; details: over 3,200 patients, 4 double-blind randomized trials, adult and adolescent patients

## Clc1ccc2c(c1)CCc1cccnc1C2=C1CCNCC1 [desloratadine, Desloratadine]
Cells of human origin
  inhibition of events in the cascade of allergic inflammation: can inhibit many events in the cascade of allergic inflammation
[1]
  clinical efficacy in seasonal rhinitis: demonstrated the efficacy
